{"source": "PubChem BioAssay AID1671195 | Yale University, 2021", "assay": "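Knockdowns that increase or decrease uptake of fluorescent LDL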 (primary screen)", "system": "human Huh7 hepatoma cells", "reagents": "siRNA pool against human genes, 18 nM", "timing": "about 2 to 2.5 days of knockdown, then 8 h LDL uptake", "challenge": "DiI-labelled LDL at 30 µg/ml for 8 h, in lipoprotein-deficient serum medium", "detection": "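Fluorescent LDL signal imaged in cells, scaled to the plate median, robust z-score for each replicate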", "reading the numbers": "robust z-score: higher = more LDL uptake after knockdown", "hit rule": "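Active when two or more replicates show a robust z-score above 2 or below -2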", "note": "The whole screen tested about 22,000 reagents; shown is a part drawn at random. In the full data, about 1,510 (6.9%) were called active. 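Active includes knockdowns raising or lowering LDL uptake; positive z-scores mean more uptake, negative mean less.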 Entries without a mark were called inactive."}
{"gene": "TAF12 (TATA-box binding protein associated factor 12)", "robust z-score, replicate 1": 0.832, "robust z-score, replicate 2": 0.0559, "robust z-score, replicate 3": 0.988}
{"gene": "AURKA (aurora kinase A)", "robust z-score, replicate 1": -0.42, "robust z-score, replicate 2": -0.426, "robust z-score, replicate 3": -0.147}
{"gene": "MAT1A (methionine adenosyltransferase 1A)", "robust z-score, replicate 1": 0.915, "robust z-score, replicate 2": -0.521, "robust z-score, replicate 3": -0.581}
{"gene": "PRAMEF12 (PRAME family member 12)", "robust z-score, replicate 1": -0.615, "robust z-score, replicate 2": -0.866, "robust z-score, replicate 3": -0.802}
{"gene": "LOC440705 (retired record)", "robust z-score, replicate 1": 1, "robust z-score, replicate 2": 1.42, "robust z-score, replicate 3": 1.79}
{"gene": "MRPS5 (mitochondrial ribosomal protein S5)", "robust z-score, replicate 1": 0.418, "robust z-score, replicate 2": 0.441, "robust z-score, replicate 3": 0.545}
{"gene": "HSPB7 (heat shock protein family B (small) member 7)", "robust z-score, replicate 1": -0.279, "robust z-score, replicate 2": -0.406, "robust z-score, replicate 3": -0.18}
{"gene": "MIR137HG (MIR137 host gene)", "robust z-score, replicate 1": 0.475, "robust z-score, replicate 2": 0.417, "robust z-score, replicate 3": 0.479}
{"gene": "ULK3 (unc-51 like kinase 3)", "robust z-score, replicate 1": -0.883, "robust z-score, replicate 2": -0.739, "robust z-score, replicate 3": -1.4}
{"gene": "NIBAN1 (niban apoptosis regulator 1)", "robust z-score, replicate 1": -0.379, "robust z-score, replicate 2": 1.57, "robust z-score, replicate 3": 0.982}
{"gene": "FABP2 (fatty acid binding protein 2)", "robust z-score, replicate 1": 2.79, "robust z-score, replicate 2": 0.5, "robust z-score, replicate 3": -2.33}
{"gene": "NACC2 (NACC family member 2)", "robust z-score, replicate 1": 0.229, "robust z-score, replicate 2": -0.646, "robust z-score, replicate 3": -0.0743}

Laid out differently: 2 of the entries above
gene	robust z-score, replicate 1	robust z-score, replicate 2	robust z-score, replicate 3
ULK3 (unc-51 like kinase 3)	-0.883	-0.739	-1.4
NIBAN1 (niban apoptosis regulator 1)	-0.379	1.57	0.982
